Experimental findings from article PMC11784589 are described below.

For the series, the target named is T1, BcMYB30-His (UniProt A0A816SUQ6).
T1 sequence (looked up, limits assumed): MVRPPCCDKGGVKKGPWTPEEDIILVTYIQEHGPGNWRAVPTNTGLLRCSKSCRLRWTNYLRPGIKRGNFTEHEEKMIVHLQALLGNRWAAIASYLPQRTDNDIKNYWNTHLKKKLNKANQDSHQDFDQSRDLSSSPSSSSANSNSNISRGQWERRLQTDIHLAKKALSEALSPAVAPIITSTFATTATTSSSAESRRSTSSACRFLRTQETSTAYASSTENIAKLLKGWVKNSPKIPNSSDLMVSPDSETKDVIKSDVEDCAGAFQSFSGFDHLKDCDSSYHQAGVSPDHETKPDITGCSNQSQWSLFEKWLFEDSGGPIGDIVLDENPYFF
Description: EMSA. Particulars: EMSA: 24 °C, 30 min; chemiluminescent EMSA kit (Thermo Fisher); salt and pH not stated; recombinant protein; protein details: His (pET-28a). A general note: Mobility shift assays separate free from complexed probe on a gel.

Construct, isoform or probe ends are uncertain for at least one entry. No signal at the amounts used counts as a negative. At least one verdict rests on a figure or table, not on a statement of the authors. Where a protein sequence is shown, tags need not be part of it.

As for “ACAAATGTTTTTTAAGGAGAA (double strand) [EMSA-SRC2-2-mut]”, the binding result is reported as “no binding”.
For “TGGTGTATTTTTTATGTTCGG (double strand) [EMSA-SRC2-1-mut]” the value was “no binding”.
